Each structure is given as a SMILES string. Counter-ions that a name gives are not always drawn. The list shows a part of the results. This data set is noisy: repeats of one test often differ as much as different tests do.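 In a drug-repurposing library screen, luminescence reads luciferase driven by eight TEAD-binding elements, stably integrated into human kidney-derived cells. Compounds scoring over five robust Z scores above the plate mean are called hits.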

For this assay, the system named is HEK293A TEAD-LUC reporter. The assay can be described thus: TEAD-luciferase reporter activity (YAP activation), robust Z score vs plate; higher = stronger YAP/TEAD activation. As to conditions: 24 h. On the technique in general: In a reporter assay the amount or activity of a reporter protein is the signal.

As for `CC(C)N(CCCCOCC(=O)NS(C)(=O)=O)c1cnc(-c2ccccc2)c(-c2ccccc2)n1` [Selexipag], the TEAD-luciferase reporter activity is, setting by setting: (compound concentration: 200 nM) inactive: -1.47; (compound concentration: 2 uM) inactive: -1.9; (compound concentration: 10 uM) inactive: 1.78.
As to `CO/N=C(\C(=O)N[C@@H]1C(=O)N2C(C(=O)O)=C(C[n+]3ccn4ncccc43)CS[C@H]12)c1nsc(N)n1` [cefozopran], the TEAD-luciferase reporter activity (compound concentration: 2 uM) is inactive: 3.34.
For the molecule `CO/N=C(\C(=O)N[C@@H]1C(=O)N2C(C(=O)O)=C(C[n+]3ccn4ncccc43)CS[C@H]12)c1nsc(N)n1` [Cefozopran], the TEAD-luciferase reporter activity runs as follows: (compound concentration: 200 nM) inactive: -1.49; (compound concentration: 2 uM) inactive: 0.455; (compound concentration: 10 uM) inactive: -0.906.
Taken in the same sequence, the figures for `C[N+](C)([O-])CCNc1ccc(NCC[N+](C)(C)[O-])c2c1C(=O)c1c(O)ccc(O)c1C2=O` [Banoxantrone] were inactive: 4.73, inactive: -0.806 and inactive: 1.03.
The matching figures for `O=C1CN2Cc3cc(N4CCCCC4)ccc3N=C2N1`: inactive: 1.04, inactive: -0.476 and inactive: -0.505.
As to `CCCCC(C)(C)[C@H](O)/C=C/[C@H]1[C@H](O)CC(=O)[C@@H]1C/C=C\CCCC(=O)O` [16,16-dimethyl PGE2], the TEAD-luciferase reporter activity (compound concentration: 2 uM) is inactive: 0.358.
For `CCCCC(C)(C)[C@H](O)/C=C/[C@H]1[C@H](O)CC(=O)[C@@H]1C/C=C\CCCC(=O)O`, the TEAD-luciferase reporter activity is, setting by setting: (compound concentration: 200 nM) inactive: -1.3; (compound concentration: 10 uM) inactive: 1.64.
`CCCCC(Oc1ccccc1CNc1cccc(/C=C/c2ccc3cc(Cl)ccc3n2)c1)C(=O)O` (stereo not drawn): the TEAD-luciferase reporter activity is, setting by setting: (compound concentration: 200 nM) inactive: -0.818; (compound concentration: 2 uM) inactive: -0.595; (compound concentration: 10 uM) inactive: 0.0205.
The matching figures for `C=C[C@]1(C)C[C@@H](OC(=O)CSc2cccc(CO)c2)[C@]2(C)C(C)CCC3(CCC(=O)C32)[C@@H](C)[C@@H]1O` (stereo partly drawn): inactive: 1.3, inactive: -0.874 and inactive: -0.252.
Taken in the same sequence, the figures for `C[N+](C)(Cc1ccc(NC(=O)c2ccc(Cl)c(Cl)c2)cc1)C1CCOCC1` were inactive: -1.88, inactive: -0.188 and inactive: -1.11.
On to `Cc1c(C(C)OC(=O)CCC(=O)O)oc2ccc(C3=CC(=O)OC3)cc12` (stereo not drawn), for which the TEAD-luciferase reporter activity was inactive: -0.769 (compound concentration: 200 nM), inactive: -0.652 (compound concentration: 2 uM) and inactive: 1.05 (compound concentration: 10 uM).
Taken in the same sequence, the figures for `C[C@@H]1C[C@H]2[C@@H]3CCC4=CC(=O)C=C[C@]4(C)[C@@]3(F)[C@@H](O)C[C@]2(C)[C@@]1(O)C(=O)COC(=O)c1ccncc1` [Dexamethasone Isonicotinate CRS] were inactive: -0.203, inactive: 0.376 and inactive: 0.242.
Taken in the same sequence, the figures for `COc1ccc(Cl)c(-c2ccc(NC(=O)c3cnn(C)c3)nc2N)c1` were inactive: 0.532, inactive: 2.74 and inactive: 1.36.
The matching figures for `CC1(C)CC(=O)c2c(O)cc(OCC(=O)O)cc2O1`: inactive: -1.14, inactive: -0.189 and inactive: -0.735.
Turning to `O=C(O)COc1cccc(CN(Cc2ccc(-n3cccn3)cc2)S(=O)(=O)c2cccnc2)c1` [taprenepag], the TEAD-luciferase reporter activity reads like this: (compound concentration: 200 nM) inactive: -0.95; (compound concentration: 2 uM) inactive: 2.6; (compound concentration: 10 uM) inactive: 0.536.
Regarding `CC(=O)N1CCC[C@H]1C(=O)N[C@@H](Cc1c[nH]cn1)C(=O)N[C@@H](CO)C(=O)N[C@@H](CS)C(=O)N[C@@H](CC(N)=O)C(N)=O`, the TEAD-luciferase reporter activity (compound concentration: 200 nM) was inactive: -0.557, the TEAD-luciferase reporter activity (compound concentration: 2 uM) is inactive: -1.39 and the TEAD-luciferase reporter activity (compound concentration: 10 uM) was inactive: 4.38.
The matching figures for `COc1ccc2c(c1)c(CC(=O)NO)c(C)n2C(=O)c1ccc(Cl)cc1` [oxametacin]: inactive: -0.628, inactive: 0.911 and inactive: 2.85.
As for `C=CS(=O)(=O)[O-]`, the TEAD-luciferase reporter activity runs as follows: (compound concentration: 200 nM) inactive: -0.716; (compound concentration: 2 uM) inactive: -1.04; (compound concentration: 10 uM) inactive: 0.255.
As to `CCCCCCCCCCCCCCCC(=O)O[C@@H]1[C@@H](O)[C@@H](O)[C@@H]([C@H](NC(=O)[C@@H]2C[C@@H](CCC)CN2C)[C@H](C)Cl)O[C@@H]1SC` [Clindamycin palmitate HCl], the TEAD-luciferase reporter activity (compound concentration: 2 uM) was inactive: -0.709.
Take `CCCCCCCCCCCCCCCC(=O)O[C@@H]1[C@@H](O)[C@@H](O)[C@@H]([C@H](NC(=O)[C@@H]2C[C@@H](CCC)CN2C)[C@H](C)Cl)O[C@@H]1SC` [Clindamycin Palmitate?HCl]: the TEAD-luciferase reporter activity was inactive: -1.25 (compound concentration: 200 nM) and inactive: -1.25 (compound concentration: 10 uM).
In the case of `Cc1ccc(NS(=O)(=O)Cc2ccccc2)c(=O)n1CC(=O)NCC1CCN(C(=N)N)CC1`, the TEAD-luciferase reporter activity (compound concentration: 200 nM) is inactive: -1.42, the TEAD-luciferase reporter activity (compound concentration: 2 uM) was inactive: -2.11 and the TEAD-luciferase reporter activity (compound concentration: 10 uM) was inactive: 2.3.
Taken in the same sequence, the figures for `COc1ccc2c(c1)C(C(=O)N(Cc1ccc(N(C)C)cc1)c1ccc(C(C)C)cc1)CCC2` (stereo not drawn) were inactive: -0.91, inactive: 1.58 and inactive: -1.31.

Source of the values: the supplement of paper PMC10735217.
